Strings that start with PEPTIDE1 are HELM notation: dots part the residues, brackets hold end groups and non-standard residues.
Experiment: general procedure: solution-phase peptide synthesis; DCCI/HOBt; Bop; Boc-Phe-ONp/HOBt
Settings: coupling step

PEPTIDE1{[Boc].F.[Asp(OBzl)].[Sta].A.L.[OMe]}$$$$V2.0
step yield: 50%

Reference: patent US4746648A (Sanofi; Institut National de la Recherche Medicale, priority 1985, dated 1988)
